The values below come from the supplement of paper PMC12819154, “High-throughput peptide-centric local stability assay extends protein–ligand identification to membrane proteins, tissues and bacteria” (Nature Structural & Molecular Biology, 2025).

Amino acid sequences for entries named in this document (tags omitted). A change or cut given only in a name is not applied to a line headed by its entry.
UniProt Q8NFC6: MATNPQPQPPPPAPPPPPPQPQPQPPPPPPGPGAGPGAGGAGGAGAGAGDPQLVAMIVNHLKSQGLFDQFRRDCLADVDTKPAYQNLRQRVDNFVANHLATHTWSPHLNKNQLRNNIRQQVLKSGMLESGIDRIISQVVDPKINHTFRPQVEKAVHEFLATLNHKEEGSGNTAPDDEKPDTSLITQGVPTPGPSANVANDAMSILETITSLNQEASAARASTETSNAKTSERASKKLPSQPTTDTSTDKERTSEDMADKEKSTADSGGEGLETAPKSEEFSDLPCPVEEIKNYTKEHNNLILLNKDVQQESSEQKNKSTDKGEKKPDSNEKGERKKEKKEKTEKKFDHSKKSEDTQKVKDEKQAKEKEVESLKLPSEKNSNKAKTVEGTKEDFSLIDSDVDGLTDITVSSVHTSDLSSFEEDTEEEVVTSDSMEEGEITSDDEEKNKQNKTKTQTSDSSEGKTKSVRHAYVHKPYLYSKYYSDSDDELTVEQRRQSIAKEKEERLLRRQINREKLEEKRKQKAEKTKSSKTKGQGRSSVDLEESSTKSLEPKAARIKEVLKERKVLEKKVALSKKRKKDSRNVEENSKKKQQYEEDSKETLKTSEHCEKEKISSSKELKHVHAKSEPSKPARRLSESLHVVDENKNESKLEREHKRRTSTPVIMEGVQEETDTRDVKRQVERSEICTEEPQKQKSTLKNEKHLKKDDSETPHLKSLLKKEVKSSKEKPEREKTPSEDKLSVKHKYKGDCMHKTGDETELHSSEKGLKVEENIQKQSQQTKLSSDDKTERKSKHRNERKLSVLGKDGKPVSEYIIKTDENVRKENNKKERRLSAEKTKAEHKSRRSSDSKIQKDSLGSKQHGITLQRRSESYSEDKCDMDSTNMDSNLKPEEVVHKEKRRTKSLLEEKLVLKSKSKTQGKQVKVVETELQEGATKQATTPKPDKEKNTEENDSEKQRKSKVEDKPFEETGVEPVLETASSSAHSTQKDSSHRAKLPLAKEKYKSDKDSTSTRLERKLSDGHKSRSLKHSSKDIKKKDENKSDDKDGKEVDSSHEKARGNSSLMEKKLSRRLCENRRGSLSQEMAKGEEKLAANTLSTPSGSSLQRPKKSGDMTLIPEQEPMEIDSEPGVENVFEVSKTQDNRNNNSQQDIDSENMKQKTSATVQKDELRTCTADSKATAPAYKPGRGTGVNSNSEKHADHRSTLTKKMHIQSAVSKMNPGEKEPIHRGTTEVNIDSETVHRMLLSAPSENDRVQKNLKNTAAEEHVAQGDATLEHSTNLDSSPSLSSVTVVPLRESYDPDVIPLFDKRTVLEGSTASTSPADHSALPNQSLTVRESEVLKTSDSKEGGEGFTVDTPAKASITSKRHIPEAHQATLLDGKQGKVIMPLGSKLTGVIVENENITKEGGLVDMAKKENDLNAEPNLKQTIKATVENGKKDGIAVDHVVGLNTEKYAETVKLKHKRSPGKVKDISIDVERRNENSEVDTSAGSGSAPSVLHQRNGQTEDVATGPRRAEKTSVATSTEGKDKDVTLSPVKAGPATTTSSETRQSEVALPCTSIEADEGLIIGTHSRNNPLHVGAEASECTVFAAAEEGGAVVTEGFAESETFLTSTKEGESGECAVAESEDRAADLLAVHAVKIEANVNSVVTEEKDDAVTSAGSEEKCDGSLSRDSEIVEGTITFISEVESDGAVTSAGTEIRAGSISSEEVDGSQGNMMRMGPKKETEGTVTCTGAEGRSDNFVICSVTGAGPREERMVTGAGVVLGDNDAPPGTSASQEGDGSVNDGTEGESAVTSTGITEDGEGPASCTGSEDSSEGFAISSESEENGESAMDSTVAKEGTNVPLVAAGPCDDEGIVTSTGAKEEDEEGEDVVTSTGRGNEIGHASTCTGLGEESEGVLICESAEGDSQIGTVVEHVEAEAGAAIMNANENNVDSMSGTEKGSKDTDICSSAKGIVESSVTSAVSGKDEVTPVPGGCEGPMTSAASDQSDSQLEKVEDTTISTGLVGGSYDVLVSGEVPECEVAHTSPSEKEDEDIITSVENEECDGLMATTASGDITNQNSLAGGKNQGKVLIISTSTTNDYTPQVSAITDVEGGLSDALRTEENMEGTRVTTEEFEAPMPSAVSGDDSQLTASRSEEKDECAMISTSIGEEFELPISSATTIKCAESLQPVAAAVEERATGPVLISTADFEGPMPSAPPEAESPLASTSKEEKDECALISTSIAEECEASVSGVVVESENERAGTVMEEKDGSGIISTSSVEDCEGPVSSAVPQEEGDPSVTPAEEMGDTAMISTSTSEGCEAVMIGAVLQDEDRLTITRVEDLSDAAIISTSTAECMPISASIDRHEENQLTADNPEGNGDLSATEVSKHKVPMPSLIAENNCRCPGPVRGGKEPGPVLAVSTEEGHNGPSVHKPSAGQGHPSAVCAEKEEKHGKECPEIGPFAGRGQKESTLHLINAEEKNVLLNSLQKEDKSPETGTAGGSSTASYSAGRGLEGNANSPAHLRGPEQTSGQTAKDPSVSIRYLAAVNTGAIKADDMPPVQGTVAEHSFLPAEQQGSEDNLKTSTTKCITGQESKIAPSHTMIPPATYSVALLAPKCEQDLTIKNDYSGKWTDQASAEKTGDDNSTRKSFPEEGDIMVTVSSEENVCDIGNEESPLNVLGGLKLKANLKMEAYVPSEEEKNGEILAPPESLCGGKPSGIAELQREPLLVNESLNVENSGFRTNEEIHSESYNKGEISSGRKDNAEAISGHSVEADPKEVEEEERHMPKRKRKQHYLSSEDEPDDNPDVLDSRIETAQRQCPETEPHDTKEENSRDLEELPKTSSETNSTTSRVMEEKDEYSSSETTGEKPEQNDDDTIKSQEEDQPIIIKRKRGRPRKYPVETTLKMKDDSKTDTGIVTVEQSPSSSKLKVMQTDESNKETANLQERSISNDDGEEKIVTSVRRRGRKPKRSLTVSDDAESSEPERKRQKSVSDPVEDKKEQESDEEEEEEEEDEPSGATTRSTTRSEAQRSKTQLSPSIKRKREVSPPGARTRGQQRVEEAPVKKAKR
UniProt Q8NEC7: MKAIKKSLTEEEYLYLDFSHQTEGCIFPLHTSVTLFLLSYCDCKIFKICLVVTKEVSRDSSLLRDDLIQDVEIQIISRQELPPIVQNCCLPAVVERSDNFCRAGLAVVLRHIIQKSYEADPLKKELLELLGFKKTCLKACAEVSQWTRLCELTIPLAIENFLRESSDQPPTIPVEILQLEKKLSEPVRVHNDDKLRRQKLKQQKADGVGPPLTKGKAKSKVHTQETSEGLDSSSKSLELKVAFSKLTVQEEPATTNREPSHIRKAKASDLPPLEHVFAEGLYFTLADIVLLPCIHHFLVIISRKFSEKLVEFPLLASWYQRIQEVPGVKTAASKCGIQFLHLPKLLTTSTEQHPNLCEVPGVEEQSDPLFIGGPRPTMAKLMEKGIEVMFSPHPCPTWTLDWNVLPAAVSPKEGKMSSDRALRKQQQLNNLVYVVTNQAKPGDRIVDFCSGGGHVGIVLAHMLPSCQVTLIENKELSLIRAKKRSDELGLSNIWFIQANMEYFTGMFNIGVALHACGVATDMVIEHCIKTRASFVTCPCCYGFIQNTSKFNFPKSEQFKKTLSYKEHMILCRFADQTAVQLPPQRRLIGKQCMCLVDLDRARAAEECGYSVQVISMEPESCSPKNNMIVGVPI
UniProt Q8NHK3: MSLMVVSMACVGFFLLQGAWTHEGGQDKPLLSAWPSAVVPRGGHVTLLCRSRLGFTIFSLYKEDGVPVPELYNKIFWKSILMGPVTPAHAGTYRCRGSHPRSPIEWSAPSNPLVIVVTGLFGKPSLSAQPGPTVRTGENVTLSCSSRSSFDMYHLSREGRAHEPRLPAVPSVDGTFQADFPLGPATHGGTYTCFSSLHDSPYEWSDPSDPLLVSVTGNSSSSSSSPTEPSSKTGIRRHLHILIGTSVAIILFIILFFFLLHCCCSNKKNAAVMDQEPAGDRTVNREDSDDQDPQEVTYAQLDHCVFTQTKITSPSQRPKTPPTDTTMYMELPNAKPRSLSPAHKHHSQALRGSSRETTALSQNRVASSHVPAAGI
UniProt Q8NI27: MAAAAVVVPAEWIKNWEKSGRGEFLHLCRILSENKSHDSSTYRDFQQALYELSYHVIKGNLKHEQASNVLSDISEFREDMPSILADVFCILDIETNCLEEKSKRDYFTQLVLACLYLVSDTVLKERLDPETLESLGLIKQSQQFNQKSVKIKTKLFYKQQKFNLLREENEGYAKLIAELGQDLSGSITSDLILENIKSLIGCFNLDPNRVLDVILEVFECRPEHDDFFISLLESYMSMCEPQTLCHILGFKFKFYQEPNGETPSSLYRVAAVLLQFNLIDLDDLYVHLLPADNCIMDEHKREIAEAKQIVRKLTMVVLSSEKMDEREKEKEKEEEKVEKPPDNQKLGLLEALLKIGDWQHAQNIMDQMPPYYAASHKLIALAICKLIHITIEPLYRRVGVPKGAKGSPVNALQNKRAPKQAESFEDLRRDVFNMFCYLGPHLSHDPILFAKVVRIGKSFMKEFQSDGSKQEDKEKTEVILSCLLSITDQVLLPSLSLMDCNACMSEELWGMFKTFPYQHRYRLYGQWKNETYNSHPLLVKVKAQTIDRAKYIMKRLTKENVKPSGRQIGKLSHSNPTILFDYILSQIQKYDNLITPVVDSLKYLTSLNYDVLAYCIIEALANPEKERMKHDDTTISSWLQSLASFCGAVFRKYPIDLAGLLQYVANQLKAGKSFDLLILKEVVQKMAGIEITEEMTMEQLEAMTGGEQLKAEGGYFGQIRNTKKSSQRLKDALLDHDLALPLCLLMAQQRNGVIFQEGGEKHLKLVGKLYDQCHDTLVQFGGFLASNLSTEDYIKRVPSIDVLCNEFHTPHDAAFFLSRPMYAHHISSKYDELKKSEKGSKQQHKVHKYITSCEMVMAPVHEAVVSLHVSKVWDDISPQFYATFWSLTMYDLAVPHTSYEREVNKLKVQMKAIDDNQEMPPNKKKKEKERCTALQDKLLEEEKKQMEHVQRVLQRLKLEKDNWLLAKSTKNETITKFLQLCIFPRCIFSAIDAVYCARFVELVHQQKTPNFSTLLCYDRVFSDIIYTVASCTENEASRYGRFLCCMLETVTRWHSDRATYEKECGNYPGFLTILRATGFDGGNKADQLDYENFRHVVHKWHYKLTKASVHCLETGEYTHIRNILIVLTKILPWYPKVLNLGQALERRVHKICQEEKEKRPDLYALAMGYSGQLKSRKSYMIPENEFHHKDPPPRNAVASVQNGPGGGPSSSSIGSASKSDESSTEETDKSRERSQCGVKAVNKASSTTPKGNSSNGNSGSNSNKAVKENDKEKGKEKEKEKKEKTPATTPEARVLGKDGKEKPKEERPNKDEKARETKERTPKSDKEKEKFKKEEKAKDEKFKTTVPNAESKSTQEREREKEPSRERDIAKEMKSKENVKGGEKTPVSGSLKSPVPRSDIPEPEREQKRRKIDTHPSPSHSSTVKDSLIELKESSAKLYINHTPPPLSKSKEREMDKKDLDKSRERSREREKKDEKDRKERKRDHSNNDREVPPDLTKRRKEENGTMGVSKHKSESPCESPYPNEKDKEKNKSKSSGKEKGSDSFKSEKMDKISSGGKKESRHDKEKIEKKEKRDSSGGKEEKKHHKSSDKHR
UniProt Q8NCD3, whole entry: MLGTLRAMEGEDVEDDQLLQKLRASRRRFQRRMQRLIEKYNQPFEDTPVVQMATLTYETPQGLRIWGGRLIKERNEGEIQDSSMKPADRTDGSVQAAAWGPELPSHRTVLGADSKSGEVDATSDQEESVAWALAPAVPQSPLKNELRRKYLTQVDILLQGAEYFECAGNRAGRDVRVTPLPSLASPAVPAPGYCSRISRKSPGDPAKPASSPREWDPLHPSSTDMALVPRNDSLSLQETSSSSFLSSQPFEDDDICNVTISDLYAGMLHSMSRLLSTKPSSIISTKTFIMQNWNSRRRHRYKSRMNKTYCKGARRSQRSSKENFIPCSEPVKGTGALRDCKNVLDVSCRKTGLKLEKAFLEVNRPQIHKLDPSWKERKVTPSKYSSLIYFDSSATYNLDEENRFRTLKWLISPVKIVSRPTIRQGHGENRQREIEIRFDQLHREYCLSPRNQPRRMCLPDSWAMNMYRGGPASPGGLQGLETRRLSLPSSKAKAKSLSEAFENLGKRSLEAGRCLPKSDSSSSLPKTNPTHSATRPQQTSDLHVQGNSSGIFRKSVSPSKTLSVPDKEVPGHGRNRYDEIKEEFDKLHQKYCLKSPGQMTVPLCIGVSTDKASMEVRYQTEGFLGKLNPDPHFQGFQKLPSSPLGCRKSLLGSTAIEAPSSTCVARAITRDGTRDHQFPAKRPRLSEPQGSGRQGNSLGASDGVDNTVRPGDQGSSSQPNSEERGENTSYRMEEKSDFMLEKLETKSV
UniProt Q8N9Q2: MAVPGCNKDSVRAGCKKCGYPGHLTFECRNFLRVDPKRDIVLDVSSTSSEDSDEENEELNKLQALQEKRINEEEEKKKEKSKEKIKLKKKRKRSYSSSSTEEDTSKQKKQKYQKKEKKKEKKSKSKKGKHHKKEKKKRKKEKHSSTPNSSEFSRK

The list shows a part of the results. Most values lie at the level of the controls, where differences are scatter.

Compound in this assay: CN[C@@H]1C[C@H]2O[C@@](C)([C@@H]1OC)n1c3ccccc3c3c4c(c5c6ccccc6n2c5c31)C(=O)NC4 [staurosporine]
Description: log2 fold change of tryptic peptide abundance, ligand vs vehicle (limited proteolysis) (log2 ratio); higher = more trypsin-susceptible (destabilized). The following applies: ligand concentration: 20 uM; sample: K562 cleared lysate; digestion: 4 min, 22 C (HT-PELSA RT4min, Orbitrap Astral).
On to “UniProt Q8NFC6 (peptide sequence: QQYEEDSKETLK, peptide start residue: 591)”, for which the log2 fold change was -0.413.

With “GSTCD (peptide sequence: ELLELLGFKK, peptide start residue: 125) (UniProt Q8NEC7)”, the log2 fold change stood at 0.308.

As to “UniProt Q8N9L1 (peptide sequence: THTGEKPFR, peptide start residue: 852)”, the log2 fold change is -0.408. Take “UniProt Q8NHK3 (peptide sequence: KNAAVMDQEPAGDRTVNR, peptide start residue: 368)”: the log2 fold change stood at 0.258. The figure for “THOC2 (peptide sequence: EKTPATTPEAR, peptide start residue: 1283) (UniProt Q8NI27)” is 0.195. Turning to “PAF1 (peptide sequence: TEYISTEFNR, peptide start residue: 134) (UniProt Q8N7H5)”, the log2 fold change is -0.146. The value for “HJURP (peptide sequence: LPSSPLGCR, peptide start residue: 639) (UniProt Q8NCD3)” was 0.183; that for “SREK1IP1 (peptide sequence: AGCKKCGYPGHLTFECR, peptide start residue: 13) (UniProt Q8N9Q2)” was -0.109.
